From publication doi:10.1101/287508
Results are given in words; binding and its absence hold for the method and conditions named. Binding seen in cells or lysates may run through a third protein. Some binding calls cover weakened binding; strength is not graded here.

The chains behind the UniProt entries cited, without tags or fusion partners. Where a name states a change or a piece, a line headed by the entry shows the natural chain unless it says otherwise. Residues count along the entry.
UniProt P53668: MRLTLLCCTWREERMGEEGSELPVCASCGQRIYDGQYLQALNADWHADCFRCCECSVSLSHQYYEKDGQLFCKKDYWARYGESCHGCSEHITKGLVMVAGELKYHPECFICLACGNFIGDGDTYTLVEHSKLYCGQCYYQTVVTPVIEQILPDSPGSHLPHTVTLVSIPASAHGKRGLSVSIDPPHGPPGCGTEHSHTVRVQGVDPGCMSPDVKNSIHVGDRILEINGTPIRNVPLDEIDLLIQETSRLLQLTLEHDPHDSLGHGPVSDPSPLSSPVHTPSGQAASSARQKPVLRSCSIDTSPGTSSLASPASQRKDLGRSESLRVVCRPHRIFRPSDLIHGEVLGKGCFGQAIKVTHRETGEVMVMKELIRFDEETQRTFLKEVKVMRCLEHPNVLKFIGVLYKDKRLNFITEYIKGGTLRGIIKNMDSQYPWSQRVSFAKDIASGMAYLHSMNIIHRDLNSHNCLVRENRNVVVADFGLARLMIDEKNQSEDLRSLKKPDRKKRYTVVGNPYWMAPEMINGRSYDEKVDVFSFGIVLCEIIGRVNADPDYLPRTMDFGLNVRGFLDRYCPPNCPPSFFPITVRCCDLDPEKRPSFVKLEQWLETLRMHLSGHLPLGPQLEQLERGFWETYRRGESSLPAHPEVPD
GST-LIMK1 ΔPDZ, Kinase (lacking residues 148–648): residues 1-147 of P53668
UniProt Q888Y7: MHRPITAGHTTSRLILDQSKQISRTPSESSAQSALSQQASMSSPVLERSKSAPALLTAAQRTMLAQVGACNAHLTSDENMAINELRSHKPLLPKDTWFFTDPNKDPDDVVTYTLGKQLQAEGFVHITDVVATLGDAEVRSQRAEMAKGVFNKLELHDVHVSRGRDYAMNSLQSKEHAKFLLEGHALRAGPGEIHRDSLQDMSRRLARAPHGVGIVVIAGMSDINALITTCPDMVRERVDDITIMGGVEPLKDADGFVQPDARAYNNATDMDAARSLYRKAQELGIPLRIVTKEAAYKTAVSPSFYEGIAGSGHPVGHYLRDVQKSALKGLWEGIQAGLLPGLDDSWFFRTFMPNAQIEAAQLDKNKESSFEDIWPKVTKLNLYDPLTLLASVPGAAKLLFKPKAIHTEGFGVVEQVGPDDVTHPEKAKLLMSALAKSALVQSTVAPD
UniProt P53667: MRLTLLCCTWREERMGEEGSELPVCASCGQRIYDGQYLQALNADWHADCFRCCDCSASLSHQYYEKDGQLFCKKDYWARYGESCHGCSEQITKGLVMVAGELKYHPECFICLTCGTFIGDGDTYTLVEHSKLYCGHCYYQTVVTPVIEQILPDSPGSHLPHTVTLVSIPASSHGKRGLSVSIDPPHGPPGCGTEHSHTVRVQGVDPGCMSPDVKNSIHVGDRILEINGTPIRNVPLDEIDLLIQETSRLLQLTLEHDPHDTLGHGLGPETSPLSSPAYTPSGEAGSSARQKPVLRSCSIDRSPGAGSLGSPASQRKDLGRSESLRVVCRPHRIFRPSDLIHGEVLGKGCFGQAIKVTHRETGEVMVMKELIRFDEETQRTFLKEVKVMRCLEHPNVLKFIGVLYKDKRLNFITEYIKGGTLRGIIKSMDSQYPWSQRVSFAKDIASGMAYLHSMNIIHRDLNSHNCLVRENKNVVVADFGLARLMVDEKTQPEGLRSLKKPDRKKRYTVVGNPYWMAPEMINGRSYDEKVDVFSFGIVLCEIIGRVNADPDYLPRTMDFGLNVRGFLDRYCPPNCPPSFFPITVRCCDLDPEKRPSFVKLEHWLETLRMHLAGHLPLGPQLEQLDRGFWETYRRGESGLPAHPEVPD
UniProt P23528: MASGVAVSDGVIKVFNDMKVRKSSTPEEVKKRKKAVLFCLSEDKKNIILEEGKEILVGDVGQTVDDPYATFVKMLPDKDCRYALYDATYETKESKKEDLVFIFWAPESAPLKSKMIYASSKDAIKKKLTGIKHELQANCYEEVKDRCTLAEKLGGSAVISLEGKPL

How the values were obtained:
[1] = target: GST-LIMK1, mouse LIMK1 (full) (mouse) (UniProt P53668); test: pull-down
[2] = target: GST-LIMK1 ΔPDZ, Kinase (lacking residues 148–648) (mouse) (UniProt P53668); test: pull-down
[3] = target: Flag-tagged HopQ1 (Pseudomonas syringae pv. tomato DC3000) (UniProt Q888Y7); test: co-IP

Substance	binding [1]	binding [2]	binding [3]
Flag-tagged HopQ1 (from UniProt Q888Y7 1-447)	binds	binds	
LIM domain kinase 1 (LIMK1), endogenous in 293T cells (from UniProt P53667 1-647)			binds
cofilin1, endogenous in 293T cells (from UniProt P23528 1-166)			no binding
